The comparison behind a weaker result is the experiment's own reference, which may not be listed here.

Amino acid sequences for entries named in this document (tags omitted). Residues count along the entry.
UniProt P20823, 1-279: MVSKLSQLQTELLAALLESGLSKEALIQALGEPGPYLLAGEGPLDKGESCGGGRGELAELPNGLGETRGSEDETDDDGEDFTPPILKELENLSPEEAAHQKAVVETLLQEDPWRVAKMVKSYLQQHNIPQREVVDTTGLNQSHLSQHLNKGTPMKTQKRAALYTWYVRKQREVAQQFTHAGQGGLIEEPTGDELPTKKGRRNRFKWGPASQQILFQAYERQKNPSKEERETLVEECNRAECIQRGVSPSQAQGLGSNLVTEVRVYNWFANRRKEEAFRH

This series deals with HNF-1A DD-DBD (HNF-1A 1-279) (UniProt P20823). As to the kind of experiment: BLI. The conditions noted are these: Kd increase between 5 and 10 fold vs P2 WT; BLI: streptavidin sensor with BiotinTEG dsDNA; recombinant protein; residues 1-279; protein details: His6 removed by TEV; label: 5' BiotinTEG on forward strand (BLI only).

For the sequence “ACTGATTACTCTTTAACGTAT (double strand) [P2 -181G>A]”, the binding result is given as “binds more weakly”.
